# Data from article PMC11111093.
# No constants are given. Whether binding was seen depends on the method and setting. In cells and extracts the contact can be indirect. Some binding calls cover weakened binding; strength is not graded here.
# T1: ADAP (adhesion and degranulation-promoting adapter protein), endogenous in iBMMs (mouse (endogenous in iBMMs)) (UniProt O35601)
# T1 sequence: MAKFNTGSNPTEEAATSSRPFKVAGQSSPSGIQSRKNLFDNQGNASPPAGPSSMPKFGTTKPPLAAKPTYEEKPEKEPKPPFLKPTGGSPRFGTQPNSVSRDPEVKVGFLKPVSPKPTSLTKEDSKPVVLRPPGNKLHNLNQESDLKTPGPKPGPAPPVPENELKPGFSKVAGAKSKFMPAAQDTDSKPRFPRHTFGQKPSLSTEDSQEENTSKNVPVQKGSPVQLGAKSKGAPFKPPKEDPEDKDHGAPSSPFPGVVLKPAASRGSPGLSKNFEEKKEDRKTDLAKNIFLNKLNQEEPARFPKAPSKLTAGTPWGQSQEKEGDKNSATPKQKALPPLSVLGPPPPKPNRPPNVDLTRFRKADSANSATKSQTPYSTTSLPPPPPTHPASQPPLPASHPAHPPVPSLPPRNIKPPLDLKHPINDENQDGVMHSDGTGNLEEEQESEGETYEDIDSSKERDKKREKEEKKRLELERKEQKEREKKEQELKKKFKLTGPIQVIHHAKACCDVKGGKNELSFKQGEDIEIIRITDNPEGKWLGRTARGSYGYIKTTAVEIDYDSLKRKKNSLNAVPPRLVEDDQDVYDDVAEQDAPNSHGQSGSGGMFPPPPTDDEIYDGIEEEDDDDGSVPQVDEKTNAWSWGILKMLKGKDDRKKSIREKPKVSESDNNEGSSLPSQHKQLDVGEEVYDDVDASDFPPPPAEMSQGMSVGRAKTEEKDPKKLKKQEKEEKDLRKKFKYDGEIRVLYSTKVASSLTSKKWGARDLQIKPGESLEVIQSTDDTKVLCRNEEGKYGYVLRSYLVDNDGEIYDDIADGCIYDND
# B1: RIG-I (retinoic acid-inducible gene I), endogenous in iBMMs (protein, UniProt Q6Q899 1-926)
# chain: MTAEQRQNLQAFRDYIKKILDPTYILSYMSSWLEDEEVQYIQAEKNNKGPMEAASLFLQYLLKLQSEGWFQAFLDALYHAGYCGLCEAIESWDFQKIEKLEEHRLLLRRLEPEFKATVDPNDILSELSECLINQECEEIRQIRDTKGRMAGAEKMAECLIRSDKENWPKVLQLALEKDNSKFSELWIVDKGFKRAESKADEDDGAEASSIQIFIQEEPECQNLSQNPGPPSEASSNNLHSPLKPRNYQLELALPAKKGKNTIICAPTGCGKTFVSLLICEHHLKKFPCGQKGKVVFFANQIPVYEQQATVFSRYFERLGYNIASISGATSDSVSVQHIIEDNDIIILTPQILVNNLNNGAIPSLSVFTLMIFDECHNTSKNHPYNQIMFRYLDHKLGESRDPLPQVVGLTASVGVGDAKTAEEAMQHICKLCAALDASVIATVRDNVAELEQVVYKPQKISRKVASRTSNTFKCIISQLMKETEKLAKDVSEELGKLFQIQNREFGTQKYEQWIVGVHKACSVFQMADKEEESRVCKALFLYTSHLRKYNDALIISEDAQMTDALNYLKAFFHDVREAAFDETERELTRRFEEKLEELEKVSRDPSNENPKLRDLYLVLQEEYHLKPETKTILFVKTRALVDALKKWIEENPALSFLKPGILTGRGRTNRATGMTLPAQKCVLEAFRASGDNNILIATSVADEGIDIAECNLVILYEYVGNVIKMIQTRGRGRARDSKCFLLTSSADVIEKEKANMIKEKIMNESILRLQTWDEMKFGKTVHRIQVNEKLLRDSQHKPQPVPDKENKKLLCGKCKNFACYTADIRVVETSHYTVLGDAFKERFVCKPHPKPKIYDNFEKKAKIFCAKQNCSHDWGIFVRYKTFEIPVIKIESFVVEDIVSGVQNRHSKWKDFHFERIQFDPAEMSV
# B2: MDA5, endogenous in iBMMs (protein, UniProt Q8R5F7 1-1025)
# chain: MSIVCSAEDSFRNLILFFRPRLKMYIQVEPVLDHLIFLSAETKEQILKKINTCGNTSAAELLLSTLEQGQWPLGWTQMFVEALEHSGNPLAARYVKPTLTDLPSPSSETAHDECLHLLTLLQPTLVDKLLINDVLDTCFEKGLLTVEDRNRISAAGNSGNESGVRELLRRIVQKENWFSTFLDVLRQTGNDALFQELTGGGCPEDNTDLANSSHRDGPAANECLLPAVDESSLETEAWNVDDILPEASCTDSSVTTESDTSLAEGSVSCFDESLGHNSNMGRDSGTMGSDSDESVIQTKRVSPEPELQLRPYQMEVAQPALDGKNIIICLPTGSGKTRVAVYITKDHLDKKKQASESGKVIVLVNKVMLAEQLFRKEFNPYLKKWYRIIGLSGDTQLKISFPEVVKSYDVIISTAQILENSLLNLESGDDDGVQLSDFSLIIIDECHHTNKEAVYNNIMRRYLKQKLRNNDLKKQNKPAIPLPQILGLTASPGVGAAKKQSEAEKHILNICANLDAFTIKTVKENLGQLKHQIKEPCKKFVIADDTRENPFKEKLLEIMASIQTYCQKSPMSDFGTQHYEQWAIQMEKKAAKDGNRKDRVCAEHLRKYNEALQINDTIRMIDAYSHLETFYTDEKEKKFAVLNDSDKSDDEASSCNDQLKGDVKKSLKLDETDEFLMNLFFDNKKMLKKLAENPKYENEKLIKLRNTILEQFTRSEESSRGIIFTKTRQSTYALSQWIMENAKFAEVGVKAHHLIGAGHSSEVKPMTQTEQKEVISKFRTGEINLLIATTVAEEGLDIKECNIVIRYGLVTNEIAMVQARGRARADESTYVLVTSSGSGVTEREIVNDFREKMMYKAINRVQNMKPEEYAHKILELQVQSILEKKMKVKRSIAKQYNDNPSLITLLCKNCSMLVCSGENIHVIEKMHHVNMTPEFKGLYIVRENKALQKKFADYQTNGEIICKCGQAWGTMMVHKGLDLPCLKIRNFVVNFKNNSPKKQYKKWVELPIRFPDLDYSEYCLYSDED
# What was measured:
# [1] = biological target: T1, ADAP (adhesion and degranulation-promoting adapter protein), endogenous in iBMMs (mouse (endogenous in iBMMs)); assay: condition: only in sucrose-gradient fractions F9-10; co-IP; as a3, combined sucrose-gradient fractions F9-10 of iBMMs (resting and IFN-β), anti-ADAP immunoprecipitation, anti-RIG-I blot
# [2] = biological target: T1, ADAP (adhesion and degranulation-promoting adapter protein), endogenous in iBMMs (mouse (endogenous in iBMMs)); assay: co-IP; anti-ADAP immunoprecipitation from whole-cell lysates of iBMMs, mock, LPS 1 μg/ml (0, 12, 24 h) or SeV (0, 5, 10 h); lysis in 1% Triton X-100, 20 mM Tris-HCl pH 8.3, 150 mM NaCl; protein G Sepharose, 4°C; blots for RIG-I and MDA5
# [3] = biological target: T1, ADAP (adhesion and degranulation-promoting adapter protein), endogenous in iBMMs (mouse (endogenous in iBMMs)); assay: co-IP; iBMMs unstimulated or IFN-β 50 ng/ml 24 h; lysate on a discontinuous sucrose gradient (5%, 30%, 40%); fractions 5-7, 9-10 and 11-12 immunoprecipitated with anti-ADAP, blots for RIG-I and MDA5; result for RIG-I in combined fractions F11-12
Binder,binding [1],binding [2],binding [3]
B1,no binding,binds,binds
B2,–,no binding,no binding
